Two molecules from patent publication US20200323863A1 can be followed below.

Substitutions are numbered along the chain they refer to. In names and notes the source's numbering stands. No constants are given. Whether binding was seen depends on the method and setting. In cells and extracts the contact can be indirect. Some binding calls cover weakened binding; strength is not graded here. Tags and fused reporters may be left off the sequences shown.

The target of experiment [1] is T1, LATS1 (Large Tumor Suppressor Kinase 1) (UniProt O95835).
T1 sequence (looked up): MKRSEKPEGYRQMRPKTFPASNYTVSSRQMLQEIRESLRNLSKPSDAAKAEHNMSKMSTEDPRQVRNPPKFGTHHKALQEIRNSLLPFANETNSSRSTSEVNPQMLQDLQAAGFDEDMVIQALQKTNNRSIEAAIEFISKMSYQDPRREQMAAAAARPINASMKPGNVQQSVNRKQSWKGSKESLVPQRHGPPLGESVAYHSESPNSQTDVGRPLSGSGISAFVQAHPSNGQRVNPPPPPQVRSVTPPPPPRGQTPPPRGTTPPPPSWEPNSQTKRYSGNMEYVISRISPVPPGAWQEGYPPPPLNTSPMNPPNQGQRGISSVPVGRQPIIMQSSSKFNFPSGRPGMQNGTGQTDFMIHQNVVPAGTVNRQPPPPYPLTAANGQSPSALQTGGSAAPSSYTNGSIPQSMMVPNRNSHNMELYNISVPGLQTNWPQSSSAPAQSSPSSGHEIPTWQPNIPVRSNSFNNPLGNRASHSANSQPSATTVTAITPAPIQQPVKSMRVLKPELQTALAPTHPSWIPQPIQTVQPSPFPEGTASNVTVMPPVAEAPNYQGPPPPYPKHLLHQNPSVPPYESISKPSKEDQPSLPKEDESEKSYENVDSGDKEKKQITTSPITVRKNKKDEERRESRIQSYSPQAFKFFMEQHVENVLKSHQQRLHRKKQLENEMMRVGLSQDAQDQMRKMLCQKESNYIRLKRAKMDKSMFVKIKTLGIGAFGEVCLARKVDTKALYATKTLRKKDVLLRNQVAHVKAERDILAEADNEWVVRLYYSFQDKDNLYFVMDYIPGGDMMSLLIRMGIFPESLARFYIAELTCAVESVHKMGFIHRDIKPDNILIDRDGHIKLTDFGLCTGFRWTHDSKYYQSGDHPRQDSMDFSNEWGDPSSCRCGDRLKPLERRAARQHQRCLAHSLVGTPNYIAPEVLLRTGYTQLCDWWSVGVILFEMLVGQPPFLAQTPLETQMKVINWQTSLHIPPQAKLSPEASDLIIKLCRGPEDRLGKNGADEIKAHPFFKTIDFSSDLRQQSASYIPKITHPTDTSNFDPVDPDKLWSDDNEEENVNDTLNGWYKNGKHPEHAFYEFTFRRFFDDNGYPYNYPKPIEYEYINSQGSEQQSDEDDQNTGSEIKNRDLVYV
Put plainly: co-immunoprecipitation (HA IP, immunoblot), HEK293 cells with or without FAK. In general terms: Immunoblotting shows a protein as a band on a membrane.

Experiment [2] has as its target T1, LATS1 (Large Tumor Suppressor Kinase 1). Put plainly: co-immunoprecipitation (HA or pY IP, immunoblot), OMM1.3 cells with HA-MOB1, treated with FAK inhibitor VS-4718.
The target is the same in experiment [3]. Put plainly: co-immunoprecipitation (HA IP, immunoblot), OMM1.3 cells with or without VS-4718.

B1: HA-MOB1 (wildtype HA-tagged MOB1, from pcDNA3-HA-MOB1 or pLENTi-HA-MOB1) (protein, UniProt Q9H8S9 1-216, looked up, not shown: small tags and cut ends)
chain: MSFLFSSRSSKTFKPKKNIPEGSHQYELLKHAEATLGSGNLRQAVMLPEGEDLNEWIAVNTVDFFNQINMLYGTITEFCTEASCPVMSAGPRYEYHWADGTNIKKPIKCSAPKYIDYLMTWVQDQLDDETLFPSKIGVPFPKNFMSVAKTILKRLFRVYAHIYHQHFDSVMQLQEEAHLNTSFKHFIFFVQEFNLIDRRELAPLQELIEKLGSKDR
Regarding B1, the binding result in experiment [1] and in experiment [2] was “binds” throughout.

B2: HA-Y26F-MOB1 (mutant HA-tagged MOB1 with Y26F) (protein, UniProt Q9H8S9 1-216, looked up, not shown: small tags and cut ends)
chain: B1 chain with Y26F
Consider B2, for which the binding entry in experiment [1] and in experiment [3] was “binds” in each case.
